Experimental data from publication doi:10.64898/2025.12.10.693398.

The chains behind the UniProt entries cited, without tags or fusion partners. Where a name states a change or a piece, a line headed by the entry shows the natural chain unless it says otherwise.
UniProt P62814: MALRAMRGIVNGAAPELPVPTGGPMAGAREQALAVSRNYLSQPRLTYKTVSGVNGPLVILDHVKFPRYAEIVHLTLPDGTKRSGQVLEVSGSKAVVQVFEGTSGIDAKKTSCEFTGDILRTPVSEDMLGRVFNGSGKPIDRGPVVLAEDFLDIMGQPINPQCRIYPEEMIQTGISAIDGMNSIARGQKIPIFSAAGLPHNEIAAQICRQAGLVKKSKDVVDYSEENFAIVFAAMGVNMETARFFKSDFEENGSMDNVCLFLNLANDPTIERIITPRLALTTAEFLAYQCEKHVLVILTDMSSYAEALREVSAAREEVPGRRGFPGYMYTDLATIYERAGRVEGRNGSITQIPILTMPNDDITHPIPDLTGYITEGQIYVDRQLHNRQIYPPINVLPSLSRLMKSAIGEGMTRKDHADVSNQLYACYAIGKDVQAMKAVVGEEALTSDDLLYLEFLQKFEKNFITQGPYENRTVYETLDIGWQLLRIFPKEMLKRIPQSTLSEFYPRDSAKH
UniProt Q9JHF5: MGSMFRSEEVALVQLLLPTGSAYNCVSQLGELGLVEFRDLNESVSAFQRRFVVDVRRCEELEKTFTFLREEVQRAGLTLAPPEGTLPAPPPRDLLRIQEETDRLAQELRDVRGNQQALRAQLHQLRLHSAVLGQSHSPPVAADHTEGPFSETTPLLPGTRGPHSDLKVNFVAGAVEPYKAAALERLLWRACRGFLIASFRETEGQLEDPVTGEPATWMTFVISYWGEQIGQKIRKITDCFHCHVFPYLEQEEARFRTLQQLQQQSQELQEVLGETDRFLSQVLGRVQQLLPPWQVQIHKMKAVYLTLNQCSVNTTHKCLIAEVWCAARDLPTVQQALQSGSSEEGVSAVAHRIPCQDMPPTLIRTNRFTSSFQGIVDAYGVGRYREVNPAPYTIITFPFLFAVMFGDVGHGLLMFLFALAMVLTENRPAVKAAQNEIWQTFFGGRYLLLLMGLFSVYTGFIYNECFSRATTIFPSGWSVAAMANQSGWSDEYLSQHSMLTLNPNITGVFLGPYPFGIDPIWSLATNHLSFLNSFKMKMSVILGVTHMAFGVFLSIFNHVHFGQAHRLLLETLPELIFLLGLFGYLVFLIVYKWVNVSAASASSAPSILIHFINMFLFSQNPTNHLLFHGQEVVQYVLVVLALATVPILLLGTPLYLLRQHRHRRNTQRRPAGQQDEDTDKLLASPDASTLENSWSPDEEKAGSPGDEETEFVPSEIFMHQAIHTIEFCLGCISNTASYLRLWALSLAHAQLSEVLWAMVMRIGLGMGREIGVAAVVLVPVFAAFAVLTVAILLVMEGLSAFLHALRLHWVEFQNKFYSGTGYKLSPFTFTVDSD

Molecular target: HA-V1b2 (mouse) (UniProt P62814)
Experiment: co-IP

binding: binds
Substance: Flag-Voa3 (from UniProt Q9JHF5)

No constants are given. Whether binding was seen depends on the method and setting. In cells and extracts the contact can be indirect. Binding calls can cover weak binding; strength is not graded here.
